The results in this text go back to paper PMC7819943, “Rice protein-binding microarrays: a tool to detect cis-acting elements near promoter regions in rice”.

The list shows a part of the results.

The target in this test is T1, OsSMF1 (Oryza sativa, UniProt Q6ZLB0 1-436).
T1 sequence: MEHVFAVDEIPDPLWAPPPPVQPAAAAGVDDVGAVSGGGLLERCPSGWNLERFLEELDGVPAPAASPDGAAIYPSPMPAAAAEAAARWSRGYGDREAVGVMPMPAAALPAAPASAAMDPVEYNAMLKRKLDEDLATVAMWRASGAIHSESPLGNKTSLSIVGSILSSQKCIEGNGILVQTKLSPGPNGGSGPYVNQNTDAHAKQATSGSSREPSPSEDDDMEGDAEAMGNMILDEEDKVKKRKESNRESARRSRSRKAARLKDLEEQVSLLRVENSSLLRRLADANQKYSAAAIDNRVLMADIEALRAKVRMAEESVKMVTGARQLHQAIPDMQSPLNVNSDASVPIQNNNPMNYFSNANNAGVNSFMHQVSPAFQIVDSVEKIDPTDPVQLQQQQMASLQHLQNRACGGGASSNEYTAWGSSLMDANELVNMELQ
As to the kind of experiment: protein-binding microarray (RPBM); PBS, 2% BSA, 51.3 ng/ul salmon testes DNA, 50 uM zinc acetate, 200 nM TF, 25 C, 1 h; high values mean tight binding. To be noted: protein: recombinant; tags: N-terminal polyhistidine and DsRed monomer fusion (pET32a); chain copies: 2; label: CyDye5-dUTP incorporated in the synthesized complementary strand; 3' TTTTT single-stranded linker to array surface; dsDNA, one strand shown. The procedure, abridged:
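For the binding signal, per-feature fluorescence intensity was read in arbitrary units on an Axon 4000B scanner. Before scanning, a 2% BSA-blocked custom Agilent array made double-stranded with Cy5-dUTP was washed after 1 h at 25 °C with 200 nM protein and 50 µM zinc acetate. The proteins were Ni–NTA-purified transcription factors with N-terminal polyhistidine and DsRed fusions, expressed in E. coli BL21-CodonPlus.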
With “TGGGCTGAAGTTGTTTGTAGCGCATCTGTCATCTGTCTCGCGGAGTCACCTAGTGCAG”, the binding signal was 4510 fluorescence intensity (a.u.).
In the case of “TTCTTGACTTCTTGGTGAGGAAACCTCATTTCGGCTGAAGCGGAGTCACCTAGTGCAG”, the binding signal was 28800 fluorescence intensity (a.u.).
Regarding “GATAGTTTCACATCACTGACCATGAACTTTTCTGACACAGCGGAGTCACCTAGTGCAG”, the binding signal was 3490 fluorescence intensity (a.u.).
With “AATCACTTGAAGTTTGACATTCCACCTCATAAGTTATTTTCGGAGTCACCTAGTGCAG”, the binding signal was 4460 fluorescence intensity (a.u.).
Consider “TGTAAAACTAAGCTTTGACAACGACGCTGCGAGCTAGCAACGGAGTCACCTAGTGCAG”, for which the binding signal is 3630 fluorescence intensity (a.u.).
On to “GCTTGTCCTTTTCAATTAGACATGTTGACATGGCAGTAGGCGGAGTCACCTAGTGCAG”, for which the binding signal was 3520 fluorescence intensity (a.u.).
On to “CAGAAACTAATGCGGCTGAGTTCGTTTCTCGCCTTTCCCACGGAGTCACCTAGTGCAG”, for which the binding signal is 3340 fluorescence intensity (a.u.).
Take “GCACAACTGGGCATGACTGACATTATTGTCGAAATGGATGCGGAGTCACCTAGTGCAG”: the binding signal was 3570 fluorescence intensity (a.u.).
Turning to “CTCATGTGACATGCCACATAGGAGTTGACTCATTTTCTTTCGGAGTCACCTAGTGCAG”, the binding signal was 6680 fluorescence intensity (a.u.).
Take “GATCCTGAGGTAAGTGACGAGTCAATGAACTGTGCACAGGCGGAGTCACCTAGTGCAG”: the binding signal was 3280 fluorescence intensity (a.u.).
With “GCTGCATGCAGTTCATCGTGTCCTGCCGTGGCTACAGCGCCGGAGTCACCTAGTGCAG”, the binding signal was 3180 fluorescence intensity (a.u.).
On to “CGCCGATCTTCTCCGAGGCTGACTCGGTCGATCCAGAGGTCGGAGTCACCTAGTGCAG”, for which the binding signal is 3410 fluorescence intensity (a.u.).
Take “GCCGCCGCCGTGGCCGCCGAGGCCATGCTGTTCGGCGTCGCGGAGTCACCTAGTGCAG”: the binding signal is 3470 fluorescence intensity (a.u.).
In the case of “CCTTCCACTTTTGGGCCGGCCCAGGTTTGCCACGGCCCGGCGGAGTCACCTAGTGCAG”, the binding signal is 3160 fluorescence intensity (a.u.).
Consider “CTTTCTTTGAGCCCAGCTGACGTCTCCCGCAACACCGCATCGGAGTCACCTAGTGCAG”, for which the binding signal is 4770 fluorescence intensity (a.u.).
As to “GGGGAGGAGGAGGTGCTGTTGCTCGATGGCTGTGCCGTGGCGGAGTCACCTAGTGCAG”, the binding signal was 4170 fluorescence intensity (a.u.).
In the case of “GGAGGAGGGAATGATCCAGAGCGTTGTACCTGGTGTTGGTCGGAGTCACCTAGTGCAG”, the binding signal is 3740 fluorescence intensity (a.u.).
For “AGGCCGCGACGCAAATGGTGCGGTCACGCACACCGAAGTGCGGAGTCACCTAGTGCAG”, the binding signal is 3260 fluorescence intensity (a.u.).
As to “TCAAGTCCAATTCATGTTTCATGCCACGTTCGCCGTGCCGCGGAGTCACCTAGTGCAG”, the binding signal was 7420 fluorescence intensity (a.u.).
The same measure for “TAAAGTTTCAATCTACTTTGAGAGATCTTTGATTTGTGTTCGGAGTCACCTAGTGCAG”: 29700 fluorescence intensity (a.u.).
Regarding “AAGGAGAGGGGAGAGAGATGAAGGGGAGTCGGGGAGAGAGCGGAGTCACCTAGTGCAG”, the binding signal is 3620 fluorescence intensity (a.u.).
In the case of “GCGGTTGAGGGATGACGACATGATGTGAGGAGAGAGGAACCGGAGTCACCTAGTGCAG” it was 3400 fluorescence intensity (a.u.).
As to “CATCCCGCTCGCCGGCGTGCACCAGCGATCGGGAGAGCAGCGGAGTCACCTAGTGCAG”, the binding signal was 3580 fluorescence intensity (a.u.).
The same measure for “CACAACCACTCTTTCCCTAACCCAATGACTAAGATGTAAGCGGAGTCACCTAGTGCAG”: 3860 fluorescence intensity (a.u.); for “CTTCCGTCAATTCTCGATCGTTTTCCGTCCGCCTTGATCGCGGAGTCACCTAGTGCAG”: 7830 fluorescence intensity (a.u.).
With “ACTTTTATCACTGTCCATCTCCTCTATGCCGTGGACATGACGGAGTCACCTAGTGCAG”, the binding signal was 3540 fluorescence intensity (a.u.).
Take “GCCTGCGACACCTTATCCAGGGTCCCACTCGTCATAATCTCGGAGTCACCTAGTGCAG”: the binding signal is 3850 fluorescence intensity (a.u.).
As to “AAGCGGCGCGCATCCGATGGGCGACGCGTGTGCCCGCTCTCGGAGTCACCTAGTGCAG”, the binding signal was 3140 fluorescence intensity (a.u.).
With “GCGCCAAAGAATCCAAAACAAAGACATCATCGCATCAGCCCGGAGTCACCTAGTGCAG”, the binding signal is 4480 fluorescence intensity (a.u.).
On to “GGGGATGAGCATTAGGTGTCTCGTCGATGATGTGTCGCGCCGGAGTCACCTAGTGCAG”, for which the binding signal was 9620 fluorescence intensity (a.u.).
Take “TCGTATCCAGAAGGTTCAGCATCACGTGTCCTCCTGGCCCCGGAGTCACCTAGTGCAG”: the binding signal was 4090 fluorescence intensity (a.u.).
Consider “GAATTTTGCACTCACAAAACTGCATACGACATGATCCTGTCGGAGTCACCTAGTGCAG”, for which the binding signal was 9890 fluorescence intensity (a.u.).
Turning to “CATTGCTGTTTCCAAATCAGCTTGTACTACTACTACTTGTCGGAGTCACCTAGTGCAG”, the binding signal is 3560 fluorescence intensity (a.u.).
With “CTAAATCTAGCAAGTTATATATTATAAACGTGAGTTTAAACGGAGTCACCTAGTGCAG”, the binding signal is 14000 fluorescence intensity (a.u.).
The same measure for “CCTGCCATGACATATCAGCTCAGCTCAGCTCGACTTGTATCGGAGTCACCTAGTGCAG”: 3250 fluorescence intensity (a.u.); for “TTGCTGATGAAGATGCGCTTGTTGCTGACGGGAGAGCTGACGGAGTCACCTAGTGCAG”: 8810 fluorescence intensity (a.u.); for “CCAAGTCGAAGCGGCGACGATGATCCAATCCGTGTTCAGGCGGAGTCACCTAGTGCAG”: 5530 fluorescence intensity (a.u.).
In the case of “TGCAGTAGTTGATGTGTGGTGTGTGTCAGATAAATCTGATCGGAGTCACCTAGTGCAG”, the binding signal was 3850 fluorescence intensity (a.u.).
In the case of “GCGGTTTCCTAGTTGACTGACCAAACAATTCATATATATTCGGAGTCACCTAGTGCAG” it was 6140 fluorescence intensity (a.u.); in that of “GATTTTCTCAACAATATAGATACAGAGGCGAAGCCACGTGCGGAGTCACCTAGTGCAG”, 3390 fluorescence intensity (a.u.).
“CATGTGTGCCAAATTTGGTTGTTTGTCACGTTGCATTCCACGGAGTCACCTAGTGCAG”: the binding signal was 3810 fluorescence intensity (a.u.).
As to “GCCGACAAGAACCGCCCCTACATTGACTCGGCTTTGCCCTCGGAGTCACCTAGTGCAG”, the binding signal was 3180 fluorescence intensity (a.u.).
The same measure for “AGGAATTGGTGGATGCGGTGAGGGGCTACGGGGTGGAAGACGGAGTCACCTAGTGCAG”: 35600 fluorescence intensity (a.u.); for “GCCCATGACTTCGTGATAAATACTAATAAATAGCCCATTACGGAGTCACCTAGTGCAG”: 23200 fluorescence intensity (a.u.).
The same measure for “ACACACTTAAAGTACCAACGAAGCCATCAACCAGACAATTCGGAGTCACCTAGTGCAG”: 14200 fluorescence intensity (a.u.); for “AAAATAATTGCTTGAGGTTGCTCTAAGAAAATTGAACAGCCGGAGTCACCTAGTGCAG”: 25800 fluorescence intensity (a.u.).
Regarding “CGTCGAGGAGAGCCACCTCAGCTTCTTCCAGCGCTGGTGGCGGAGTCACCTAGTGCAG”, the binding signal is 5050 fluorescence intensity (a.u.).
In the case of “TTCAACGGCGCGTGCCGACGTGGCCGCTGCGGCGTGCGTGCGGAGTCACCTAGTGCAG”, the binding signal was 10300 fluorescence intensity (a.u.).
As to “GTTATCCGCGTGGATCCAGTTCGCTCGATCCGGTGTTTGTCGGAGTCACCTAGTGCAG”, the binding signal was 4140 fluorescence intensity (a.u.).
On to “CTCAACGAGTTCTTCCGCCGCACCTCAACGCGTCACCCCTCGGAGTCACCTAGTGCAG”, for which the binding signal is 4550 fluorescence intensity (a.u.).
For “CGTGCTCTCTGAGCGCGTATACCTAATACCTCATATACACCGGAGTCACCTAGTGCAG”, the binding signal is 4860 fluorescence intensity (a.u.).
Consider “GATTTCTTAGCACTAATGACACATCATTAGACCAGTGTTCCGGAGTCACCTAGTGCAG”, for which the binding signal is 4380 fluorescence intensity (a.u.).
Regarding “CCTGATTCACTATCGAGCTCCCGACGGCCACCTCGTCGACCGGAGTCACCTAGTGCAG”, the binding signal was 3180 fluorescence intensity (a.u.).
With “GTGGGAACGGCCTGGCACTACGTGGGCCGTGGCCCATAGGCGGAGTCACCTAGTGCAG”, the binding signal was 3140 fluorescence intensity (a.u.).
